{"source": "paper PMC10750195", "molecules": {"B1": {"name": "syntaxin 17, P56962 1-302 (protein)", "chain": "MSEDEEKVKLRRLEPAIQKFIKIVIPTDLERLRKHQINIEKYQRCRIWDKLHEEHINAGRTVQQLRSNIREIEKLCLKVRKDDLVLLKRMIDPVKEEASAATAEFLQLHLESVEELKKQFNDEETLLQPPLTRSMTVGGAFHTTEAEASSQSLTQIYALPEIPQDQNAAESWETLEADLIELSQLVTDFSLLVNSQQEKIDSIADHVNSAAVNVEEGTKNLGKAAKYKLAALPVAGALIGGMVGGPIGLLAGFKVAGIAAALGGGVLGFTGGKLIQRKKQKMMEKLTSSCPDLPSQTDKKCS"}, "B2": {"name": "vesicle-associated membrane protein 8, Q9BV40 1-100 (protein)", "chain": "MEEASEGGGNDRVRNLQSEVEGVKNIMTQNVERILARGENLEHLRNKTEDLEATSEHFKTTSQKVARKFWWKNVKMIVLICVIVFIIILFIVLFATGAFS"}}, "key": {"[1]": {"molecular_target": "T1, vesicle-associated membrane protein 8 (human (endogenous in A2780 and OV90)) (UniProt Q9BV40)", "T1 sequence": "B2 chain", "assay": "proximity ligation; Duolink PLA in A2780 and OV90 cells, mouse anti-VAMP8 and rabbit anti-STX17; FASN knockout (siRNA-silenced) group treated with rapamycin"}, "[2]": {"molecular_target": "T2, vesicle-associated membrane protein 8 (human (endogenous in A2780 and OV90)), Q9BV40", "T2 chain": "B2 chain", "assay": "co-IP; endogenous proteins in A2780 and OV90 cell lysates (strong RIPA lysis); IP with STX17 antibody or VAMP8 antibody, protein A/G agarose beads, IgG as negative control; cells with or without rapamycin (1 uM, 6 h), FASN normal or silenced", "conditions": "remark: other sources report otherwise"}, "[3]": {"molecular_target": "T2, vesicle-associated membrane protein 8 …", "assay": "proximity ligation; Duolink PLA in A2780 and OV90 cells, mouse anti-VAMP8 and rabbit anti-STX17; FASN wild-type group treated with rapamycin", "conditions": "remark: other sources report otherwise"}, "[4]": {"molecular_target": "T3, syntaxin 17 (human (endogenous in A2780 and OV90)), P56962", "T3 chain": "B1 chain", "assay": "co-IP; endogenous proteins in A2780 and OV90 cell lysates (strong RIPA lysis); IP with STX17 antibody or VAMP8 antibody, protein A/G agarose beads, IgG as negative control; cells with or without rapamycin (1 uM, 6 h), FASN normal or silenced", "conditions": "remark: other sources report otherwise"}}, "note": "These are yes or no findings as the source states them, for the method shown. In cells and extracts the contact can be indirect. Some results given as binding are weak or reduced against the parent protein; the word gives no strength.", "data": [{"molecule": "syntaxin 17 (from UniProt P56962 1-302)", "values": [{"measurement": "binding", "setting": "[1]", "value": "binds weakly"}]}, {"molecule": "B1", "values": [{"measurement": "binding", "setting": "[2]", "value": "binds"}, {"measurement": "binding", "setting": "[3]", "value": "binds"}]}, {"molecule": "B2", "values": [{"measurement": "binding", "setting": "[4]", "value": "binds"}]}]}
